These are yes or no findings as the source states them, for the method shown. In cells and extracts the contact can be indirect. Binding can be weak; no strength is given.
How the values were obtained:
[1] = biological target: myc-tagged RUFY (Drosophila); assay: co-IP; lysates (1.0 mg/ml) of transfected HEK293 cells on Pierce anti-c-Myc magnetic beads, 2 h, 4°C; 20 mM HEPES pH 7.4, 130 mM NaCl, 2 mM MgCl2, 0.1% saponin, 60 uM GppNHp; washes with 0.25% then 0.1% saponin; eluted by heating in SDS-PAGE loading buffer; Western blot
[2] = biological target: HA-tagged RUFY (Drosophila); assay: co-IP; lysates (1.0 mg/ml) of transfected HEK293 cells on Pierce anti-HA magnetic beads, 2 h, 4°C; 20 mM HEPES pH 7.4, 130 mM NaCl, 2 mM MgCl2, 0.1% saponin; 60 uM GppNHp with Rab2(wt) and Rab2[Q65L] but not Rab2[S20N]; eluted with 100 mM NaOH or HA peptide; Western blot; in Fig. S2 E cells treated with 2 uM MLi-2 for 2 h or co-transfected with LRRK2^G2019S

Amino acid sequences for entries named in this document (tags omitted). A change or cut given only in a name is not applied to a line headed by its entry.
UniProt O18333: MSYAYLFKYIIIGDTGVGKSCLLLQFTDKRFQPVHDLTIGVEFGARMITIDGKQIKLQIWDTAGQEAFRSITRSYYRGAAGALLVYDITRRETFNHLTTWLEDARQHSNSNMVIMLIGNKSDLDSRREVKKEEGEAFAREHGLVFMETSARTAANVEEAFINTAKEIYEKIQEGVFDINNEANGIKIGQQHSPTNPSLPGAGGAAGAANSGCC

Substance	binding [1]	binding [2]
HA-Rab2^Q65L (from UniProt O18333 1-213)	binds weakly	–
myc-Rab2^Q65L (from UniProt O18333 1-213)	–	binds
